Results published in publication PMC6346685.
These are yes or no findings as the source states them, for the method shown. In cells and extracts the contact can be indirect. Some results given as binding are weak or reduced against the parent protein; the word gives no strength.

Amino acid sequences for entries named in this document (tags omitted). Residues count along the entry.
UniProt P01275, residues 53-81: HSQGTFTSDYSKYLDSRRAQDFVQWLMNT
UniProt P20029, residues 20-655: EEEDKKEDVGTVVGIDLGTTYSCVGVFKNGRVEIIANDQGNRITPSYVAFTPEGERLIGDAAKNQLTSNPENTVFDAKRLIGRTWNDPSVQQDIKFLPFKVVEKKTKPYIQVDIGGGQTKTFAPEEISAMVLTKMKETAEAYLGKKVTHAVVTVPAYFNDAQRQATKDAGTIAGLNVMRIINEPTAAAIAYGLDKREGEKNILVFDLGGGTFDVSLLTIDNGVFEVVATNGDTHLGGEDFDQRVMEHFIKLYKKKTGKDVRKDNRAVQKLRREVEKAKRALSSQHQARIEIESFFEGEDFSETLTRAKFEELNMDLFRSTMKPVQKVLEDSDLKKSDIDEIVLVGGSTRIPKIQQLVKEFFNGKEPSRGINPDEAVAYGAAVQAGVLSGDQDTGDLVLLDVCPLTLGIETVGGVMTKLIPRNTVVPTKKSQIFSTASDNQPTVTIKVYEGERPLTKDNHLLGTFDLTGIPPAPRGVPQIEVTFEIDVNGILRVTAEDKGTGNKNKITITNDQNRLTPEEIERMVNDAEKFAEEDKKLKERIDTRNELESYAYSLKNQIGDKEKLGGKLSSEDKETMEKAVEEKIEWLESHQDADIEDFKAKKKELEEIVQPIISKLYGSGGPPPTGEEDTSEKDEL

Molecular target: Fc-glucagon (human) (UniProt P01275)
Experiment: co-IP; Fc-glucagon or Fc alone captured on Protein A-Sepharose from secretory granule lysate of transfected α-TC1-6 cells, overnight at 4°C; eluted with 0.1 M glycine pH 2.8; immunoblot for GRP78 or histone H4 (histone H4 after treatment of the cells with GABA)

In the case of “glucose regulated protein 78 kDa (from UniProt P20029 20-655)”, the binding is reported as “binds”.
